From the supplement of paper PMC10849652
The list shows a part of the results.

The chains behind the UniProt entries cited, without tags or fusion partners. Where a name states a change or a piece, a line headed by the entry shows the natural chain unless it says otherwise.
UniProt Q5VTD9: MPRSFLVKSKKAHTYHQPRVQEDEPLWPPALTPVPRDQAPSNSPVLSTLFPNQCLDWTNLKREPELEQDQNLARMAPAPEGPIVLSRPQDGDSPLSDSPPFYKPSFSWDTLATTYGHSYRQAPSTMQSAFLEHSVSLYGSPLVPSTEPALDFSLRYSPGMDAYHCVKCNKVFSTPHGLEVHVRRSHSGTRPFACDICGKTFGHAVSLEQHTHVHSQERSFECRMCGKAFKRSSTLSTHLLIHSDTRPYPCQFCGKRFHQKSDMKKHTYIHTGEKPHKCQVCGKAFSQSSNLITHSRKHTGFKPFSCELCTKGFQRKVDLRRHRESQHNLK
UniProt P22083, whole entry, looked up: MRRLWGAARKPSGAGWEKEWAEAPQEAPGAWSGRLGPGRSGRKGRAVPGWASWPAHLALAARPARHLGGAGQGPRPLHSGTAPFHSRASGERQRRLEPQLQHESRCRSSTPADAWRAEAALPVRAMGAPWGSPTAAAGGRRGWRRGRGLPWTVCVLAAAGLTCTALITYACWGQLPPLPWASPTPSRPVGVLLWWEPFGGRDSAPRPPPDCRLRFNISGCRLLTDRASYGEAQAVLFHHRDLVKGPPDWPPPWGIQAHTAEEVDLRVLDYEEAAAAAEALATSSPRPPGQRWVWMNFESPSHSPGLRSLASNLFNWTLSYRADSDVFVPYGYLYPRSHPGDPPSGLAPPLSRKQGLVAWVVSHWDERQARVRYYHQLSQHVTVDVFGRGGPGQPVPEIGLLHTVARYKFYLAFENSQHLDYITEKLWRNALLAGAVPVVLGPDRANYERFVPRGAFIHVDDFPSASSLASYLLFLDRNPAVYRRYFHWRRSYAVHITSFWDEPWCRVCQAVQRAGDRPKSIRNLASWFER
UniProt P07902: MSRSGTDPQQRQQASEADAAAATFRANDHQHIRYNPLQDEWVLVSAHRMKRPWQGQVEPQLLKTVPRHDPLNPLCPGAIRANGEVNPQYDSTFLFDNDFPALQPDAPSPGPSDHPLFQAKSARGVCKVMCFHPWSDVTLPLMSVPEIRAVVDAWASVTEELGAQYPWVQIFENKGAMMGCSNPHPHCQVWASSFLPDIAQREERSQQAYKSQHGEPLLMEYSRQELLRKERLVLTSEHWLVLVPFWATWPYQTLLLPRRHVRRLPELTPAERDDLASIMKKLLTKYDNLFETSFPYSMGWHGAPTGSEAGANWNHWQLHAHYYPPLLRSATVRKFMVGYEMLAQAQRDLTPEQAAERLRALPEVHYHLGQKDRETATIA
UniProt Q9H2C0: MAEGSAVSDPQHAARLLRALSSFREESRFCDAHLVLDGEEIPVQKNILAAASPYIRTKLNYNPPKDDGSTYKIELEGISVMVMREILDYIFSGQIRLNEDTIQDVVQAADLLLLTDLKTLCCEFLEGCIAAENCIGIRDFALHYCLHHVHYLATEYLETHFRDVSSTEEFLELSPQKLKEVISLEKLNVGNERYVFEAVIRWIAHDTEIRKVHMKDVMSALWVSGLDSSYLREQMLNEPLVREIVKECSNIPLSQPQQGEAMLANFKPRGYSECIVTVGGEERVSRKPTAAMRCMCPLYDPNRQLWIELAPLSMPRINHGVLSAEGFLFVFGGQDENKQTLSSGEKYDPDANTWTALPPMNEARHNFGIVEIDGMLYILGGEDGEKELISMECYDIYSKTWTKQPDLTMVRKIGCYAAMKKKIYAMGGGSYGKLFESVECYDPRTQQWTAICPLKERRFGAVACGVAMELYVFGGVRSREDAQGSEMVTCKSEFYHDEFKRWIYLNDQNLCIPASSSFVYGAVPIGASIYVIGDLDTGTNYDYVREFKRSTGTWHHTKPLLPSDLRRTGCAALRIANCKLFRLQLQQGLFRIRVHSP
UniProt O15117, whole entry, looked up: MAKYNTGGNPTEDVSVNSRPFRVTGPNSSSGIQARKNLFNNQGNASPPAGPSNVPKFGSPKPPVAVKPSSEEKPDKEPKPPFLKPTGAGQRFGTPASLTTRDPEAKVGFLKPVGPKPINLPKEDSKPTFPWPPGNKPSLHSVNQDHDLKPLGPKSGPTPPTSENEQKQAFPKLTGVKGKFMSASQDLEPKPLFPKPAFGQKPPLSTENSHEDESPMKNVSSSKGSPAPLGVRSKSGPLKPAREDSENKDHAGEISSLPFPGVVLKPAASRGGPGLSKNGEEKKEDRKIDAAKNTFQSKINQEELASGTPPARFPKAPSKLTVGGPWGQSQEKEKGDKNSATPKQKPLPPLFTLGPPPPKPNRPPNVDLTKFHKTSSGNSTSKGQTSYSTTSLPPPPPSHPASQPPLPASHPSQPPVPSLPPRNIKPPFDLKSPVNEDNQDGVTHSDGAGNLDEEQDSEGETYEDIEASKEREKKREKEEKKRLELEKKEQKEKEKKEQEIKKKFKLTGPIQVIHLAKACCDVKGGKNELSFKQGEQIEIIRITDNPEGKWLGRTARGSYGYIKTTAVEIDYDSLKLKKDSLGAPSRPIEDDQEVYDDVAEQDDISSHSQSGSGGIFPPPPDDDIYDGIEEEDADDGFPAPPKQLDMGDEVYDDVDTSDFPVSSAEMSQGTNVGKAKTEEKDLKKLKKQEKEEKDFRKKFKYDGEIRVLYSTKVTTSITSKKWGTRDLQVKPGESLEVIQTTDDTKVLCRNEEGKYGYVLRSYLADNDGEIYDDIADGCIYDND
UniProt P60520, whole entry, looked up: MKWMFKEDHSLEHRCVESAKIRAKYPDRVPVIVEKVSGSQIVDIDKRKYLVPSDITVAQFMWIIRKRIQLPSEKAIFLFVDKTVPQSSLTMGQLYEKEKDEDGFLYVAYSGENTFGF
UniProt Q01415: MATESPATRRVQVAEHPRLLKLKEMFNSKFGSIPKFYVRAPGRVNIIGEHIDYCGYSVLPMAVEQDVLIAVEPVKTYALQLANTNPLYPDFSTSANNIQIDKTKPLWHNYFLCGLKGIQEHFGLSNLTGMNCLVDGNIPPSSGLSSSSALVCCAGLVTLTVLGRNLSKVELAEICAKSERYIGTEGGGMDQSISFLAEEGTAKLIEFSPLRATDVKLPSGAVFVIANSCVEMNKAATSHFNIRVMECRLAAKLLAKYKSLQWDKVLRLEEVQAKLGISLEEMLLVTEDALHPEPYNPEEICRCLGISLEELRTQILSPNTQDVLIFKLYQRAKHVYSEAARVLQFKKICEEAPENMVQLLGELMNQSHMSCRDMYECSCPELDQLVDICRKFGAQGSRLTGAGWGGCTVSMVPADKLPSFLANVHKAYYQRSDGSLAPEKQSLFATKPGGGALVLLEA
UniProt Q96RP9: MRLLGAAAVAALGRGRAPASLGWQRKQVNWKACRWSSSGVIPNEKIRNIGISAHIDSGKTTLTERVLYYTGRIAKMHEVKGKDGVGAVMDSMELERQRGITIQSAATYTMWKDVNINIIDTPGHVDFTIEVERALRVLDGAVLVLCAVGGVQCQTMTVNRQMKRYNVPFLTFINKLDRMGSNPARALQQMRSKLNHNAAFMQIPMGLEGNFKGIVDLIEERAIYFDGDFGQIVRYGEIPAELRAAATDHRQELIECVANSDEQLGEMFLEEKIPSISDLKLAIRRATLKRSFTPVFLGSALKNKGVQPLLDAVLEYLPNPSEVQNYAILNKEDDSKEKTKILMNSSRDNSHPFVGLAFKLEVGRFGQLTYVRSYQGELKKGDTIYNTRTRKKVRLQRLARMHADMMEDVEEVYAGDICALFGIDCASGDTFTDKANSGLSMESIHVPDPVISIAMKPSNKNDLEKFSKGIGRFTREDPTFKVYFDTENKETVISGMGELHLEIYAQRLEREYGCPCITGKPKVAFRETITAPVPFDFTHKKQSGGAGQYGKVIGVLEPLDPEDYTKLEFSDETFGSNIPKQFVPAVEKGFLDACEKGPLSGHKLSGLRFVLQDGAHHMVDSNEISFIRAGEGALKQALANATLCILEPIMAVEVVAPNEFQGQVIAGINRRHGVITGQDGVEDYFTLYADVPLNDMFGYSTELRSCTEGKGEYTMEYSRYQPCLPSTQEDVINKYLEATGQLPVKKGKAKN
UniProt Q9C0B1, whole entry, looked up: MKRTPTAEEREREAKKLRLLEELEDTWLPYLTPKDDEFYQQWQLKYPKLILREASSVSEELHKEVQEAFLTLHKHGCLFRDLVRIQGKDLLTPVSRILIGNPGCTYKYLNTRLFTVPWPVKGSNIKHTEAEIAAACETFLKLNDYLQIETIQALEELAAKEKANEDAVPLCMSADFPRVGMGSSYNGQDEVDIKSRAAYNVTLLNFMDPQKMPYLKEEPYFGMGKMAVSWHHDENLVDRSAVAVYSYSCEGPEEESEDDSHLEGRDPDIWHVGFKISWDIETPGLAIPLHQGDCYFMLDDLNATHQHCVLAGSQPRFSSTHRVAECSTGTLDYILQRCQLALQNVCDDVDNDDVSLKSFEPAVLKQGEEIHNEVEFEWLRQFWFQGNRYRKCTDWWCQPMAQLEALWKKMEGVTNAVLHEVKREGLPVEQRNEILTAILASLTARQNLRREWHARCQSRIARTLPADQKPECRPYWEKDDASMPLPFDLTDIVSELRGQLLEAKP
UniProt Q04446: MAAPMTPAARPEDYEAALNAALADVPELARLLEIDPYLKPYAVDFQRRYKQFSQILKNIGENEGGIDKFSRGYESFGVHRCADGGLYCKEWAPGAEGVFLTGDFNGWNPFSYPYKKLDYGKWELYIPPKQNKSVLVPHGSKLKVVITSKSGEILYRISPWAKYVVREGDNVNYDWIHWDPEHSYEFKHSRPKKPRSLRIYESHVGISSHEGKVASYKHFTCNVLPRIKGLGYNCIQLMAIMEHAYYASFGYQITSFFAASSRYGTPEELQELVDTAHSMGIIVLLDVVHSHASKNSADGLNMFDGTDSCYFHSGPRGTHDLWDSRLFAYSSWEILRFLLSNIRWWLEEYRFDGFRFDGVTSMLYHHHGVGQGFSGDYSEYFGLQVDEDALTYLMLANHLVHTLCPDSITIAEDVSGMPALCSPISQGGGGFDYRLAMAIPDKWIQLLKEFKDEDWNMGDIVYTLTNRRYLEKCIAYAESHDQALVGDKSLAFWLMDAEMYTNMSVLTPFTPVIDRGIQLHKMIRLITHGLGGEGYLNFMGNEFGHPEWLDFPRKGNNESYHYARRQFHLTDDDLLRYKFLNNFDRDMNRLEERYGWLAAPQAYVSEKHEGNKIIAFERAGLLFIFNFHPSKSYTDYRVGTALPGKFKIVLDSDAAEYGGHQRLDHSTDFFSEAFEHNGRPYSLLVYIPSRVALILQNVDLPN
UniProt P02792: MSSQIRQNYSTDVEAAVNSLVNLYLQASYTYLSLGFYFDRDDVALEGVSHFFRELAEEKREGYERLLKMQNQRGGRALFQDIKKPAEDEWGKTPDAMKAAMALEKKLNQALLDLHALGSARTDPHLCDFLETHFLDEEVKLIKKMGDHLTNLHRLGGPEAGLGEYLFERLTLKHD
UniProt P51570: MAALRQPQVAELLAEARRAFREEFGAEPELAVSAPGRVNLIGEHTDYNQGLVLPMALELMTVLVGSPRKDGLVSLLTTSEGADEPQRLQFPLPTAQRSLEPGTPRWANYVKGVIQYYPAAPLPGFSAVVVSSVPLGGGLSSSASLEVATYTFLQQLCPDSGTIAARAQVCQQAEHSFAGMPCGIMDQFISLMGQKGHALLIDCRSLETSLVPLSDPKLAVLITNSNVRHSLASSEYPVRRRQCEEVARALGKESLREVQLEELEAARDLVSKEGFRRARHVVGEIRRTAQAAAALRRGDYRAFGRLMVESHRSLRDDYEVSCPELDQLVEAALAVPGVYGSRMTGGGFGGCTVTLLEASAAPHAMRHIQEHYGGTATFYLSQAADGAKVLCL
UniProt P41250: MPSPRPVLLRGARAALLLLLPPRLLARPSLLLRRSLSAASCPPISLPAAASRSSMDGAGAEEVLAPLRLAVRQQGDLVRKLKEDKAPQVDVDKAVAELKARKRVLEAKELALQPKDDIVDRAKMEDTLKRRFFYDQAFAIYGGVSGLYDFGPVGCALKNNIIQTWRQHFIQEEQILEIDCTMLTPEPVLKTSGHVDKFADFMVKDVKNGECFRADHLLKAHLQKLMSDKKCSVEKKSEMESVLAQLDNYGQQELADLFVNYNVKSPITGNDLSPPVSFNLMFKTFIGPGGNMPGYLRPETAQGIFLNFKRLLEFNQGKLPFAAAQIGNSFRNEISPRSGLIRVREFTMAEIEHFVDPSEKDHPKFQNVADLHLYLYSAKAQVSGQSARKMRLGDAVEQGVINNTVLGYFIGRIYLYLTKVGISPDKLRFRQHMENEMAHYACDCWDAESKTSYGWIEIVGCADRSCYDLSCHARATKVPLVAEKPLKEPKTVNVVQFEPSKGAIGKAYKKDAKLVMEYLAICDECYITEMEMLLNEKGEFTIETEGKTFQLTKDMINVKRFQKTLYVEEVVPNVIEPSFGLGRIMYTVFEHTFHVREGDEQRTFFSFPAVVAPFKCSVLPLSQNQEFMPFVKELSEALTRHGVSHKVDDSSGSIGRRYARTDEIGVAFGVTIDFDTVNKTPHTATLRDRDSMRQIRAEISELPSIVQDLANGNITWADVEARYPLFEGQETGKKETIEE
UniProt O95166, whole entry, looked up: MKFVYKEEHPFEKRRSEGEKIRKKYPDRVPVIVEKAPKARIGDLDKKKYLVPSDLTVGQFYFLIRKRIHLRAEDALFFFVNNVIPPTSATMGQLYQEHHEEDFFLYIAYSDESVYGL

Legend:
Assay in all cases: log2 fold change, soluble protein after heating vs DMSO (PISA); higher = thermal stabilisation; K562 lysate, 10 uM; active = over 0.2 and 3.5 SD of the protein, either way, in both replicates (recomputed)
nilotinib = compound: Cc1cn(-c2cc(NC(=O)c3ccc(C)c(Nc4nccc(-c5cccnc5)n4)c3)cc(C(F)(F)F)c2)cn1 [nilotinib]
Summary of the method: (§1)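 Thermal stability, expressed as log-two fold change relative to solvent controls, is given from duplicates. Crude K562 extract in PBS pH 7.4 with 1 mM MgCl2, at 1 mg/mL protein, was treated with 10 μM compound for 30 min and heated in aliquots for 3 min across 48°C-58°C. After pooling, adjustment to 0.5% NP-40 at 4°C and centrifugation at 21,000xg for 90 min, supernatant protein was measured by TMTpro 16plex LC-MS/MS with channel sums equalised.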

[1] = compound: Cc1nc(Nc2n[nH]c3c2CN(C(=O)N[C@H](CN(C)C)c2ccccc2)C3(C)C)c2sccc2n1
Summary of the method: as §1

dasatinib = compound: Cc1nc(Nc2ncc(C(=O)Nc3c(C)cccc3Cl)s2)cc(N2CCN(CCO)CC2)n1 [dasatinib]
Summary of the method: as §1

[2] = compound: Cc1ncc(-c2ccnc(Nc3ccc(S(C)(=O)=O)cc3)n2)n1C(C)C
Summary of the method: as §1

[3] = compound: Cn1cc(-c2ccc3c(c2)CCN3C(=O)Cc2cccc(C(F)(F)F)c2)c2c(N)ncnc21
Summary of the method: as §1

quisinostat = compound: Cn1cc(CNCC2CCN(c3ncc(C(=O)NO)cn3)CC2)c2ccccc21 [quisinostat]
Summary of the method: as §1

tipifarnib = compound: Cn1cncc1[C@@](N)(c1ccc(Cl)cc1)c1ccc2c(c1)c(-c1cccc(Cl)c1)cc(=O)n2C [tipifarnib]
Summary of the method: as §1

[4] = compound: NC(=O)Nc1cc(-c2cccc(F)c2)sc1C(=O)N[C@H]1CCCNC1
Summary of the method: as §1

[5] = compound: NC(=O)c1cnc(N[C@@H]2CCCC[C@@H]2N)nc1Nc1cccc(-n2nccn2)c1
Summary of the method: as §1

[6] = compound: NC1(c2ccc(-c3nc4ccn5c(=O)[nH]nc5c4cc3-c3ccccc3)cc2)CCC1
Summary of the method: as §1

Measured: log2 fold change

GALC (UniProt P54803)
inactive: nilotinib -0.019 | [1] -0.029 | dasatinib 0.077 | [2] 0.025 | [3] -0.053 | quisinostat -0.085 | tipifarnib -0.067 | [4] 0.145 | [5] -0.055 | [6] -0.032

GFI1B (UniProt Q5VTD9)
inactive: nilotinib 0.383 | [1] -0.301 | dasatinib -0.153 | [2] -0.344 | [3] -0.043 | quisinostat -0.173 | tipifarnib 0.139 | [4] 0.144 | [5] -0.113 | [6] 0.2

FUS (UniProt P35637)
inactive: nilotinib -0.23 | [1] 0.039 | dasatinib 0.083 | [2] 0.019 | [3] -0.023 | quisinostat 0.009 | tipifarnib 0.025 | [4] -0.016 | [5] -0.006 | [6] 0.038

GANAB isoform 2 (UniProt Q14697)
inactive: nilotinib 0.015 | [1] -0.008 | dasatinib 0.008 | [2] 0.005 | [3] -0.003 | quisinostat 0.053 | tipifarnib -0.018 | [4] 0.001 | [5] 0.004 | [6] -0.004

FUT4 (UniProt P22083)
inactive: nilotinib -0.2 | [1] -0.117 | dasatinib 0.142 | [2] 0.068 | [3] -0.089 | quisinostat -0.065 | tipifarnib 0.046 | [4] 0.157

GAMT (UniProt Q14353)
inactive: nilotinib -0.017 | [1] 0.022 | dasatinib 0.03 | [2] 0.129 | [3] -0.025 | quisinostat -0.043 | tipifarnib -0.137 | [4] 0.024 | [5] -0.016 | [6] -0.002

GET4 (UniProt Q7L5D6)
inactive: nilotinib -0.008 | [1] 0.037 | dasatinib -0.031 | [2] 0.007 | [3] 0.007 | quisinostat 0.004 | tipifarnib -0.024 | [4] 0.027 | [5] -0.013 | [6] -0.015

GALT (UniProt P07902)
inactive: nilotinib -0.012 | [1] 0.01 | dasatinib 0.106 | [2] 0.037 | [3] -0.038 | quisinostat -0.029 | tipifarnib 0.036 | [4] 0.054 | [5] 0.027 | [6] -0.096

FUBP1 isoform 2 (UniProt Q96AE4)
inactive: nilotinib -0.015 | [1] 0 | dasatinib 0.01 | [2] 0.016 | [3] 0.004 | quisinostat 0.017 | tipifarnib 0.004 | [4] -0.022 | [5] 0.002 | [6] 0.01

FRRS1 (UniProt Q6ZNA5)
inactive: nilotinib 0.024 | [1] -0.038 | dasatinib 0.055 | [2] 0.009 | [3] 0.054 | quisinostat -0.014 | tipifarnib -0.075 | [4] -0.046 | [5] -0.012 | [6] -0.032

FXR2 (UniProt P51116)
inactive: nilotinib -0.066 | [1] 0.032 | dasatinib -0.027 | [2] 0.003 | [3] 0.074 | quisinostat 0.025 | tipifarnib 0.015 | [4] -0.034 | [5] -0.012 | [6] -0.003

FUCA2 (UniProt Q9BTY2)
inactive: nilotinib 0.029 | [1] -0.024 | dasatinib 0.012 | [2] 0.007 | [3] 0 | quisinostat 0.026 | tipifarnib 0 | [4] -0.016 | [5] 0.001 | [6] -0.004

FUNDC2 (UniProt Q9BWH2)
inactive: nilotinib 0.043 | [1] -0.026 | dasatinib -0.034 | [2] 0.039 | [3] 0.044 | quisinostat -0.067 | tipifarnib 0.004 | [4] -0.024 | [5] 0 | [6] -0.023

GAN (UniProt Q9H2C0)
inactive: nilotinib -0.006 | [1] -0.02 | dasatinib -0.013 | [2] -0.023 | [3] -0.021 | quisinostat -0.06 | tipifarnib -0.029 | [4] 0 | [5] 0.007 | [6] -0.039

FYB1 isoform 3 (UniProt O15117)
inactive: nilotinib 0.042 | [1] 0.004 | dasatinib -0.017 | [2] -0.025 | [3] 0.001 | quisinostat -0.068 | tipifarnib -0.012 | [4] 0.034 | [5] 0.005 | [6] 0.021

GALNT5 (UniProt Q7Z7M9)
inactive: nilotinib -0.022 | [1] -0.051 | dasatinib -0.017 | [2] 0.01 | [3] -0.01 | quisinostat 0.018 | tipifarnib -0.037 | [4] -0.014 | [5] 0.036 | [6] 0.013

GABARAPL2 (UniProt P60520)
inactive: nilotinib -0.046 | [1] 0.005 | dasatinib 0.03 | [2] 0.028 | [3] 0.007 | quisinostat 0.03 | tipifarnib 0.045 | [4] -0.033 | [5] -0.007 | [6] 0.024

Quoted at random: two records from the list.
FUBP1 isoform 2 (UniProt Q96AE4)
inactive: nilotinib -0.015 | [1] 0 | dasatinib 0.01 | [2] 0.016 | [3] 0.004 | quisinostat 0.017 | tipifarnib 0.004 | [4] -0.022 | [5] 0.002 | [6] 0.01

FRRS1 (UniProt Q6ZNA5)
inactive: nilotinib 0.024 | [1] -0.038 | dasatinib 0.055 | [2] 0.009 | [3] 0.054 | quisinostat -0.014 | tipifarnib -0.075 | [4] -0.046 | [5] -0.012 | [6] -0.032

Continued:

GALK2 (UniProt Q01415)
inactive: nilotinib 0.015 | [1] 0.003 | dasatinib -0.023 | [2] 0 | [3] 0.012 | quisinostat -0.014 | tipifarnib 0.022 | [4] 0.017 | [5] 0.001 | [6] 0.005

GFM1 (UniProt Q96RP9)
inactive: nilotinib 0.026 | [1] -0.019 | dasatinib -0.024 | [2] -0.002 | [3] 0.03 | quisinostat 0.032 | tipifarnib 0.005 | [4] 0.02 | [5] 0.01 | [6] -0.004

GART (UniProt P22102)
inactive: nilotinib -0.006 | [1] -0.024 | dasatinib -0.022 | [2] -0.011 | [3] 0.01 | quisinostat 0.025 | tipifarnib 0.011 | [4] 0.015 | [5] 0.007 | [6] 0.006

GALNT12 (UniProt Q8IXK2)
inactive: nilotinib 0.046 | [1] -0.05 | dasatinib -0.037 | [2] 0.007 | [3] 0.182 | quisinostat 0.013 | tipifarnib -0.063 | [4] 0.01 | [5] -0.029 | [6] 0.013

GALNT7 (UniProt Q86SF2)
inactive: nilotinib 0.032 | [1] -0.02 | dasatinib 0.011 | [2] 0.004 | [3] 0.02 | quisinostat -0.021 | tipifarnib -0.016 | [4] -0.04 | [5] -0.008 | [6] 0.005

FTO (UniProt Q9C0B1)
inactive: nilotinib -0.017 | [1] -0.007 | dasatinib -0.003 | [2] 0.014 | [3] -0.025 | quisinostat -0.021 | tipifarnib 0.021 | [4] -0.024 | [5] 0.002 | [6] 0

FSIP2 (UniProt Q5CZC0)
inactive: nilotinib -0.118 | [1] -0.023 | dasatinib -0.024 | [2] 0.014 | [3] -0.025 | quisinostat -0.411 | tipifarnib -0.081 | [4] 0.051 | [5] -0.024 | [6] -0.188

GBE1 (UniProt Q04446)
inactive: nilotinib 0.006 | [1] 0 | dasatinib -0.088 | [2] -0.014 | [3] 0 | quisinostat 0.007 | tipifarnib -0.029 | [4] 0.033 | [5] -0.004 | [6] 0.011

FTL (UniProt P02792)
inactive: nilotinib -0.039 | [1] 0.035 | dasatinib -0.03 | [2] -0.038 | [3] -0.012 | quisinostat 0.043 | tipifarnib 0.017 | [4] 0.091 | [5] 0.009 | [6] 0.06

GDAP2 (UniProt Q9NXN4)
inactive: nilotinib -0.056 | [1] 0.077 | dasatinib -0.026 | [2] 0.09 | [3] -0.029 | quisinostat -0.085 | tipifarnib 0.05 | [4] 0.008 | [5] 0.02 | [6] -0.048

GALK1 isoform 2 (UniProt P51570)
inactive: nilotinib 0.01 | [1] -0.018 | dasatinib -0.024 | [2] -0.014 | [3] 0.03 | quisinostat -0.051 | tipifarnib 0.002 | [4] 0.04 | [5] -0.033 | [6] -0.006

GARS1 (UniProt P41250)
inactive: nilotinib 0.02 | [1] -0.039 | dasatinib 0.014 | [2] 0.008 | [3] 0.006 | quisinostat 0.035 | tipifarnib -0.015 | [4] -0.026 | [5] 0.012 | [6] 0.022

GABARAP (UniProt O95166)
inactive: nilotinib -0.018 | [1] -0.003 | dasatinib -0.132 | [2] -0.034 | [3] 0.015 | quisinostat -0.043 | tipifarnib -0.065 | [4] 0.023 | [5] 0.042 | [6] -0.036
